{
  "source": "paper doi:10.1101/2024.03.29.587195",
  "about": "(bioRxiv, 2024)",
  "key": {"[1]": {"target": "T1, DopTAP (carboxyl-terminally epitope-tagged deamidase of Pup) (Mycobacterium tuberculosis) (UniProt P9WNU9)", "T1 sequence": "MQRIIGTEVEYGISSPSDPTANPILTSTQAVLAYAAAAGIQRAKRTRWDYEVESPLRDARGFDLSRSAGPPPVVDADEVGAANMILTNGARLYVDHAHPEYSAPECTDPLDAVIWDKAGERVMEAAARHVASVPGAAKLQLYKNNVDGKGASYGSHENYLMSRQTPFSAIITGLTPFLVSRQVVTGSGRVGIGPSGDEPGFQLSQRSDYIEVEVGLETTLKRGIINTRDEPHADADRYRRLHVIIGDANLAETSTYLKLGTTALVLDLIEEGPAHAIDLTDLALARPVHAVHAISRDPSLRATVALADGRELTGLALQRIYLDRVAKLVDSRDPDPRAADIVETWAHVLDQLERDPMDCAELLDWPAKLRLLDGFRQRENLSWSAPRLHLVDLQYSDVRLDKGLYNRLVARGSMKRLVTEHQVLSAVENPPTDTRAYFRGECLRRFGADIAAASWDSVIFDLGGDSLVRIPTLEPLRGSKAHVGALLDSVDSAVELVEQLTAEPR", "assay": "co-IP"}, "[2]": {"target": "T2, PafATAP (carboxyl-terminally epitope-tagged proteasome accessory factor A) (Mycobacterium tuberculosis) (UniProt P9WNU7)", "T2 sequence": "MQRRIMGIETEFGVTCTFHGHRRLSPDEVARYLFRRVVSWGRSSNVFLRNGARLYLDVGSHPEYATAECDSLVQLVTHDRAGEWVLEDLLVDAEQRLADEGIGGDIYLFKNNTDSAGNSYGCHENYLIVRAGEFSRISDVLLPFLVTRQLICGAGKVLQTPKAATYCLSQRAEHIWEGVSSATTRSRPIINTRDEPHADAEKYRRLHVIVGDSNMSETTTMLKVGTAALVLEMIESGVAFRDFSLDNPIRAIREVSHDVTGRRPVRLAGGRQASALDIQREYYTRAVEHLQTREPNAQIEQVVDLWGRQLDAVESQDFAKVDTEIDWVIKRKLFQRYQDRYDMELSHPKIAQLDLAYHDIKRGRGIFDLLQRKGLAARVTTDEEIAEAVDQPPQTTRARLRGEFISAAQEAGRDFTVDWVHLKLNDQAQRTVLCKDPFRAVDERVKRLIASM", "assay": "co-IP"}},
  "note": "These are yes or no findings as the source states them, for the method shown. In cells and extracts the contact can be indirect. Some results given as binding are weak or reduced against the parent protein; the word gives no strength. Where a sequence is shown, tags or fusion partners need not be part of it.",
  "data": [
    {"binder": "CoaXMtb, untagged, recombinant (cryo-EM sample) (natural protein) MLLAIDVRNTHTVVGLLSGMKEHAKVVQQWRIRTESEVTADELALTIDGLIGEDSERLTGTAALSTVPSVLHEVRIMLDQYWPSVPHVLIEPGVRTGIPLLVDNPKEVGADRIVNCLAAYDRFRKAAIVVDFGSSICVDVVSAKGEFLGGAIAPGVQVSSDAAAARSAALRRVELARPRSVVGKNTVECMQAGAVFGFAGLVDGLVGRIREDVSGFSVDHDVAIVATGHTAPLLLPELHTVDHYDQHLTLQGLRLVFERNLEVQRGRLKTAR", "values": [
      {"measurement": "binding", "setting": "[1]", "value": "binds"},
      {"measurement": "binding", "setting": "[2]", "value": "no binding"}
    ]}
  ]
}
